Experimental data: the supplement of paper PMC12889115
Some of the results follow. Values are raw readings; no control value is given beside them.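 Primary screen: polymyxin B was added at a level permeabilizing Salmonella outer membranes while sparing inner membranes. DMSO wells, both with and without polymyxin B, established maximum growth. Plate-to-plate variation meant each plate was ranked on its own, and the lowest-OD600 compounds were selected as hits.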

Test system: Salmonella enterica serovar Typhimurium SL1344
Test: bacterial growth OD600 after 18 h with compound and polymyxin B; higher = more bacterial growth (less inhibition)
Settings: 50 µM, Mueller-Hinton broth

SMILES | bacterial growth OD600 (polymyxin B 0.75 µg/mL) | bacterial growth OD600 (polymyxin B 1 µg/mL)
COCC(=O)Nc1cc(C(=O)NCC2CCN(CC(C)C)CC2)cc2nc(-c3cccnc3)n(C)c12 | 0.731 | –
Cc1ncc(CN2CC[C@@H](N3CCCCCC3)[C@H](O)C2)cn1 | 0.813 | –
CCOC(=O)CCNC(=O)c1ccc2nc(-c3cccc(OC)c3)oc2c1 | – | 1.06
CCOC(=O)C1(C/C=C/c2ccccc2)CCCN(C)C1 (configuration not stated) | 0.818 | –
CCc1[nH]c2c(CNCc3cnn(CC)c3)cc(F)cc2c1C | 0.78 | –
COc1ccc(NC(=O)CCC2CCCN(CCCn3cccn3)C2)cc1Cl (configuration not stated) | – | 0.901
CCCS(=O)(=O)NCc1cccnc1Oc1ccc(F)c(F)c1 | – | 0.827
O=C(COc1ccccc1)Nc1ccc(N2CCC(NCCCOc3cccnc3)CC2)cc1 | 0.875 | –
O=C(c1cn(C2CCCCC2)nn1)N1CCCC(OCc2ccccc2)C1 (configuration not stated) | – | 0.639
Fc1ccccc1Cc1noc(CN2CCC(N3CCSCC3)CC2)n1 | – | 1.05
Cn1nccc1C(=O)NC1CC(C)(C)Cc2nc(N3CCOCC3)ncc21 (configuration not stated) | 0.986 | –
COc1ccc(F)c(CC2(CCC(=O)NC(C3CC3)C3CC3)CCC(=O)N2)c1 (configuration not stated) | 0.737 | –
COc1cccc(CN2CCCC(NCc3nccn3-c3cccc(C)c3)C2)c1 (configuration not stated) | – | 0.84
CCOC(=O)C1(Cc2ccc(F)cc2F)CCCN(C(=O)c2sc(C)nc2C)C1 (configuration not stated) | – | 0.882
CSCCC(=O)N1CCC(C(=O)Nc2cccc(-c3cccc(Cl)c3)c2)CC1 | – | 0.012
COc1ccc(CN2CCCC(C(=O)c3cc(C)c(OC)c(C)c3)C2)cc1O (configuration not stated) | – | 0.872

A different layout for part of the listing above.
SMILES,bacterial growth OD600 (polymyxin B 0.75 µg/mL),bacterial growth OD600 (polymyxin B 1 µg/mL)
CCCS(=O)(=O)NCc1cccnc1Oc1ccc(F)c(F)c1,–,0.827
Fc1ccccc1Cc1noc(CN2CCC(N3CCSCC3)CC2)n1,–,1.05

More records:

SMILES | bacterial growth OD600 (polymyxin B 0.75 µg/mL) | bacterial growth OD600 (polymyxin B 1 µg/mL)
O=C1N(Cc2ccc(F)c(F)c2)CCCC1(O)CN1CCOCC1 (configuration not stated) | – | 0.961
COC(=O)c1ccccc1C(=O)N1CCCC(N2CCN(c3ccc(F)cc3)CC2)C1 (configuration not stated) | – | 0.939
O=C(COc1ccccc1)NC1CC(=O)N(CCc2ccc(F)cc2)C1 (configuration not stated) | – | 1.05
C[C@@H]1CN(C2(C(=O)N3CCC(CO)CC3)Cc3ccccc3C2)C[C@H](C)O1 | 0.832 | –
Cc1c(-c2ccccc2F)[nH]c2ccc(CNC(=O)CCN3CCCO3)cc12 | – | 0.016
CCOC(=O)C1(Cc2ccccc2F)CCCN(C(=O)C2=CCCC2)C1 (configuration not stated) | – | 0.489
Cc1cc(C)n(-c2ccc(NC(=O)C3CCN(C(=O)c4ccoc4)CC3)cc2)n1 | – | 0.834
COc1ccccc1-n1cc(CNC(=O)CCC2(Cc3ccc(Cl)cc3)CCC(=O)N2)cn1 (configuration not stated) | 0.269 | –
Cc1ccc(OCC2CCCN(C(=O)c3ccc(-n4cc(NC(=O)c5cccnc5)cn4)cc3)C2)cc1 (configuration not stated) | 0.011 | –
COc1cccc(CN2CCCC(C(=O)c3ccc(SC)cc3)C2)c1OC (configuration not stated) | – | 0.814
Cc1cc(C)n(-c2cccc(C(=O)N3CCc4c(cnc(C)c4CNC(=O)c4ccsc4)C3)c2)n1 | 0.754 | –
Cc1nonc1CC(=O)NC(C)c1cnn(-c2cccc3ccccc23)c1C (configuration not stated) | – | 0.881
Cc1ccc(CNCC2(O)CCCN(Cc3cccc(F)c3F)C2=O)cc1 (configuration not stated) | – | 0.899
COCC(=O)N1CCC(Oc2ccc(C(=O)N(C)CCC3CCCCO3)cc2)CC1 (configuration not stated) | – | 1.14
O=C(NCc1scnc1-c1ccccc1)C1CCC(=O)N(C2CC2)C1 (configuration not stated) | – | 0.969
CSCC(=O)N1CCC(CCC(=O)NCc2cccc(C(F)(F)F)c2)CC1 | 0.792 | –
